Measurements reported in PubChem BioAssay AID504808 (Drosophila RNAi Screening Center, 2011)
Purpose: 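Fly genes required to hold E2F transcription in check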 (primary screen). Cell system: Drosophila S2 cells. Reagents: long dsRNA against Drosophila genes. Measurement: 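Firefly luciferase driven by E2F sites, normalised to Renilla luciferase on the same minimal promoter, measured by plate reader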. Reading the numbers: E2F firefly: higher = more E2F reporter activity; Renilla normaliser: higher = more normaliser reporter signal. Call rule: 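Called active if the normalised E2F reporter went up by over 50%; the cutoff is arbitrary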.
In all, the deposit lists about 21,000 reagents; shown is an unselected part of those that have a named target and a result. Of all reagents, 18 (0.084%) got an active call. 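Raw counts without plate normalisation, one of two replicates; the ratio scores behind the calls were not deposited.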 A plus sign joins genes that one reagent is predicted to hit. No sequences are given here. Not given: the amount of reagent, the time to read-out.

Gene | dsRNA | E2F firefly, rep 1 | Renilla normaliser, rep 1 | Outcome
CG14309 | DRSC14788 | 1.46e5 | 7506 | inactive
CG10660 | DRSC09769 | 71660 | 5547 | inactive
Tim17a2 | DRSC12252 | 1.22e5 | 4996 | inactive
CG15358 | DRSC00388 | 1.67e5 | 6030 | inactive
CG15386 + CG42371 | DRSC00400 | 1.71e5 | 6248 | inactive
Shawl | DRSC02209 | 1.42e5 | 5061 | inactive
Shawl | DRSC02748 | 1.47e5 | 5801 | inactive
CNMaR | DRSC08992 | 1.26e5 | 4324 | inactive
CNMaR | DRSC10224 | 1.18e5 | 5653 | inactive
CG9240 | DRSC20177 | 1.48e5 | 6184 | inactive
ex | DRSC00817 | 95282 | 4026 | inactive
CG13872 | DRSC06431 | 1.30e5 | 5108 | inactive
CG1409 | DRSC17910 | 1.07e5 | 4873 | inactive
Pak | DRSC12602 | 64027 | 3934 | inactive
Tmlh | DRSC15563 | 1.44e5 | 7656 | inactive
NaCP60E | DRSC04307 | 86076 | 3393 | inactive
kcc | DRSC04316 | 85558 | 3645 | inactive
kcc | DRSC04516 | 1.09e5 | 4695 | inactive
CG7367 | DRSC03049 | 1.58e5 | 5316 | inactive
link | DRSC06368 | 77959 | 4412 | inactive
CG18609 | DRSC06775 | 1.38e5 | 4584 | inactive
Nacalpha | DRSC07477 | 2421 | 183 | inactive
Kank | DRSC05513 | 1.29e5 | 5480 | inactive
Kank | DRSC05933 | 3022 | 163 | inactive
Gle1 | DRSC06485 | 2731 | 229 | inactive
Wdr24 | DRSC14151 | 1648 | 952 | inactive
CG6843 | DRSC10725 | 1.55e5 | 6098 | inactive
CG31465 | DRSC16090 | 70658 | 2950 | inactive
CG13045 | DRSC09926 | 1.55e5 | 7879 | inactive
CG11889 + CG11891 | DRSC14426 | 1.19e5 | 6827 | inactive
CG11889 + CG11891 | DRSC14427 | 1.18e5 | 5869 | inactive
CG33769 | DRSC11716 | 1.31e5 | 6056 | inactive
5-HT7 | DRSC12635 | 1948 | 1084 | inactive
Ssdp | DRSC16211 | 1.50e5 | 5956 | inactive
nst | DRSC09755 | 73631 | 3433 | inactive
CG7079 | DRSC16192 | 1.62e5 | 7675 | inactive
CG42820 + CG42819 | DRSC02264 | 1.64e5 | 4811 | inactive
CG42820 + CG42819 | DRSC02265 | 1.42e5 | 4782 | inactive
CG12698 | DRSC19485 | 1.50e5 | 6618 | inactive
Twdlalpha | DRSC19914 | 1.37e5 | 6283 | inactive
CG10053 | DRSC12502 | 76002 | 3524 | inactive
glu | DRSC03539 | 82178 | 3229 | inactive
brv3 | DRSC18657 | 1.07e5 | 5531 | inactive
Cc2d2a | DRSC06750 | 1.40e5 | 5685 | inactive
Cc2d2a | DRSC06779 | 1.51e5 | 5511 | inactive
Trmt112 | DRSC11685 | 1.21e5 | 6626 | inactive
CG5098 | DRSC06915 | 68105 | 3512 | inactive
vg | DRSC07715 | 85485 | 4090 | inactive
CG4744 | DRSC06887 | 3084 | 240 | inactive
CG10801 | DRSC17761 | 1.15e5 | 5075 | inactive
Gbeta76C | DRSC11174 | 77965 | 3125 | inactive
Pnn | DRSC16415 | 1.43e5 | 7229 | inactive
Ir64a | DRSC09759 | 92835 | 3869 | inactive
Ir64a | DRSC09760 | 99400 | 3838 | inactive
nSyb | DRSC08727 | 67449 | 2980 | inactive
CG15537 | DRSC15073 | 1.32e5 | 6068 | inactive
mRpS18B | DRSC02107 | 82215 | 3768 | inactive
Jhbp6 | DRSC11714 | 1.47e5 | 7758 | inactive
sog | DRSC20379 | 1.38e5 | 6552 | inactive
CG14839 | DRSC14963 | 1.09e5 | 5313 | inactive
CG7568 | DRSC16259 | 1.26e5 | 6027 | inactive
CG6695 | DRSC16098 | 79020 | 3961 | inactive
nerfin-2 | DRSC14547 | 1.41e5 | 5783 | inactive
Mst89B | DRSC16748 | 1.19e5 | 6278 | inactive
Gas41 | DRSC03156 | 82005 | 3851 | inactive
Tdh | DRSC11788 | 79128 | 3508 | inactive
mRpL44 | DRSC12306 | 75430 | 3593 | inactive
ScpX | DRSC03430 | 81847 | 3375 | inactive
CG18417 | DRSC10319 | 96986 | 3981 | inactive
sinu | DRSC09752 | 59680 | 3281 | inactive
epsilonTry | DRSC07611 | 1.14e5 | 4862 | inactive
CG13216 | DRSC06338 | 96275 | 4472 | inactive
CG5877 | DRSC19963 | 8123 | 768 | inactive
CG6753 | DRSC16108 | 1.41e5 | 6606 | inactive
Ets98B | DRSC16666 | 1.10e5 | 5669 | inactive
cac | DRSC19743 | 1.44e5 | 6331 | inactive
cac | DRSC20354 | 8543 | 832 | inactive
ETHR | DRSC15915 | 1.54e5 | 7881 | inactive
Spn42De | DRSC05011 | 1.45e5 | 4287 | inactive
CG8236 | DRSC16399 | 1.31e5 | 5998 | inactive
CG1304 | DRSC20494 | 1.33e5 | 6755 | inactive
CG13059 | DRSC09942 | 2.00e5 | 10666 | inactive
Hip1 | DRSC09812 | 75955 | 3704 | inactive
Mst85C | DRSC16746 | 1.23e5 | 5760 | inactive
CG33770 | DRSC11717 | 1.34e5 | 5723 | inactive
beat-IIIa | DRSC01575 | 1.40e5 | 5847 | inactive
beat-IIIa | DRSC01577 | 1.40e5 | 6133 | inactive
beat-IIIa | DRSC02178 | 1.09e5 | 4924 | inactive
nis | DRSC00290 | 86390 | 4193 | inactive
CG11523 | DRSC11669 | 71372 | 3582 | inactive
a | DRSC04667 | 86726 | 4029 | inactive
a | DRSC04668 | 1.00e5 | 4189 | inactive
Fdh | DRSC16670 | 73083 | 3558 | inactive
CG31111 | DRSC14649 | 69436 | 6738 | inactive
Cadps | DRSC21057 | 1.42e5 | 7171 | inactive
CG12811 | DRSC14549 | 1.42e5 | 6354 | inactive
CG7714 | DRSC16300 | 1.50e5 | 8066 | inactive
lark | DRSC11362 | 63678 | 3477 | inactive
Tmem214 | DRSC02924 | 1.69e5 | 5030 | inactive
Tmem214 | DRSC02925 | 1.62e5 | 5141 | inactive
cnc | DRSC14676 | 1.20e5 | 6888 | inactive
cnc | DRSC15289 | 63310 | 3810 | inactive
cnc | DRSC15600 | 99672 | 6800 | inactive
cnc | DRSC15601 | 1.08e5 | 8018 | inactive
CG12464 | DRSC06156 | 99465 | 4593 | inactive
mthl3 | DRSC06997 | 67555 | 3187 | inactive
CG18577 | DRSC15352 | 1.47e5 | 6804 | inactive

Part of the list above in another layout.
| Gene | dsRNA | E2F firefly, rep 1 | Renilla normaliser, rep 1 | Outcome |
| --- | --- | --- | --- | --- |
| CG14309 | DRSC14788 | 1.46e5 | 7506 | inactive |
| CG10660 | DRSC09769 | 71660 | 5547 | inactive |
| Tim17a2 | DRSC12252 | 1.22e5 | 4996 | inactive |
| CG15358 | DRSC00388 | 1.67e5 | 6030 | inactive |
| CG15386 + CG42371 | DRSC00400 | 1.71e5 | 6248 | inactive |
| Shawl | DRSC02209 | 1.42e5 | 5061 | inactive |
| Shawl | DRSC02748 | 1.47e5 | 5801 | inactive |
| CNMaR | DRSC08992 | 1.26e5 | 4324 | inactive |
| CNMaR | DRSC10224 | 1.18e5 | 5653 | inactive |
| CG9240 | DRSC20177 | 1.48e5 | 6184 | inactive |
| ex | DRSC00817 | 95282 | 4026 | inactive |
| CG13872 | DRSC06431 | 1.30e5 | 5108 | inactive |
| CG1409 | DRSC17910 | 1.07e5 | 4873 | inactive |
| Pak | DRSC12602 | 64027 | 3934 | inactive |
| Tmlh | DRSC15563 | 1.44e5 | 7656 | inactive |
| NaCP60E | DRSC04307 | 86076 | 3393 | inactive |
| kcc | DRSC04316 | 85558 | 3645 | inactive |
